In all, about 190,000 compounds went through this assay and about 110 (0.058%) were called active. This list was built around the results that the source calls inconclusive (neither active nor inactive); the mix of calls is not that of the screen.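 Rule for the calls: active = fluorescent GTP binding to Rab7 beads changed by at least 20 points from the 100% baseline, either direction, mostly lower; inconclusive = compound itself probably fluorescent, or too few beads counted; inactive = the rest.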
Tested on: Rab7 GTPase wild type (dog), Bodipy-FL-GTP binding
Assay: modulators of GTP binding to Rab7, primary screen, biochemical, wildtype, multiplex bead flow cytometry (AID 758);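 note: median green fluorescence of bound Bodipy-FL-GTP per Rab7 bead population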
Settings: GST-Rab7 beads, fluorescent GTP binding, at 10 µM, actives lie on both sides, untreated = 100%, excess cold GTP = 0%

Structure (SMILES) | GTP binding activity (percent of control)
O=c1cnc2cc([N+](=O)[O-])ccc2[nH]1 | inactive: 97%
CCCN=C1CC(C)(C)CC(=O)/C1=C(/O)CCCN1C(=O)c2ccccc2C1=O | inconclusive: 95%
NC(=S)n1[nH]c(-c2ccc([N+](=O)[O-])cc2)c(N=Nc2cccc([N+](=O)[O-])c2)c1=O | inconclusive: 88%
CCOC(=O)N1CCN(C(=O)Cn2c(=O)sc3ccccc32)CC1 | inconclusive: 103%
COCCNC(=O)c1ccc(C(=O)C(=O)c2ccccc2)cc1 | inconclusive: 102%
O=C(CNC(=O)Cc1ccccc1)N=Nc1c(O)n(Cc2ccc3c(c2)OCO3)c2ccccc12 | inactive: 90%
Cc1nc2nc(SCC(=O)N3CCOCC3)nn2c(C)c1Cc1ccccc1 | inconclusive: 104%
O=C(Nc1cccnc1N1CCOCC1)c1ccco1 | inconclusive: 101%
Nn1c(Cc2cccc3ccccc23)n[nH]c1=S | inconclusive: 100%
O=C(c1ccccc1)c1cccn1CC(=O)N1CCCCCC1 | inconclusive: 103%
CSc1ccccc1C(=O)Nc1nccs1 | inconclusive: 103%
Oc1c(C=Nc2ccccc2)sc(=S)n1Cc1ccccc1 | inconclusive: 131%
CCC(=O)Nc1ccc2c(c1)ncn2-c1ccccc1OC | inconclusive: 102%
Cc1cc(C(=O)OCC(=O)Nc2ccc(F)cc2F)c(C)o1 | inconclusive: 102%
COc1cccc(/C=N/Nc2ccc(C(=O)O)cc2)c1O | inactive: 96%
Cc1c2ccccc2nc2c(F)c(NCCO)c(F)c(F)c12 | inconclusive: 99%
O=C(N/N=C/c1cc2c3c(c1O)CCCN3CCC2)c1ccccc1O | inconclusive: 98%
Cc1cc(NC(=O)C2CC2)n(-c2nc3ccccc3s2)n1 | inconclusive: 94%
O=C(CSc1ncnc2c1cnn2-c1ccc(F)cc1)NCc1ccc2c(c1)OCO2 | inconclusive: 93%
COc1ccc(CCC(C)Nc2ccccc2F)cc1 (stereo not given) | inconclusive: 104%

Structure (SMILES) | GTP binding activity (percent of control)
COc1ccc(-c2nc3ncccn3c2Br)cc1 | inconclusive: 96%
CCOC(=O)C(C(=O)OCC)C(C)C#CCN1CCCCC1 (stereo not given) | inconclusive: 104%
CCC(=O)N/C(=N/c1nc(C)cc(C)n1)Nc1cccc(OC)c1 | inconclusive: 102%
O=C(Cn1cnc2cc([N+](=O)[O-])ccc2c1=O)Nc1cccc(S(=O)(=O)N2CCOCC2)c1 | inconclusive: 103%
COc1cccc(-n2c(SCC(=O)NCCc3ccccc3)nnc2-c2ccoc2C)c1 | inconclusive: 102%
COCc1c(CCl)cnc(C)c1O | inconclusive: 90%
CCOC(=O)C1CCCCN1Cc1cc(OC)ccc1OC (stereo not given) | inconclusive: 105%
O=C(NCc1ccc(Cl)cc1)c1cc([N+](=O)[O-])ccc1Cl | inactive: 96%
Cc1cccc(-n2c(C)cc(/C=C3\C(=N)N4N=C(CC(C)C)SC4=NC3=O)c2C)c1 | inconclusive: 89%
CN(Cc1ccccc1)S(=O)(=O)c1ccc(OCC(=O)Nc2cccc([N+](=O)[O-])c2)cc1 | inconclusive: 101%
CC(=O)Nc1ccc(C2=NNC(=Nc3cccc(S(=O)(=O)N(C)C)c3)SC2)cc1 | inconclusive: 96%
O=C(COC(=O)c1ccc(S(=O)(=O)N2CCCC2)cc1)NCc1ccccc1 | inconclusive: 89%
Cc1cc(C)c(OCC(=O)Nc2nc3ccccc3[nH]2)c(C)c1 | inconclusive: 96%
COc1cc(NS(C)(=O)=O)c(OC)cc1NC(=O)c1ccccc1 | inconclusive: 102%
CNC(=O)c1ccsc1NC(=O)CCS(=O)(=O)c1ccccc1 | inconclusive: 98%
CCCCn1c(O)c(N=NC(=O)c2ccccc2NS(=O)(=O)c2cccs2)c2ccccc21 | inactive: 91%
CC(C)(C)C(=O)/C(C#N)=C/c1ccc(O)cc1 | inconclusive: 94%
CCOc1ccc(-n2c(C)nc3cc(C(=O)NCc4ccco4)ccc32)cc1 | inconclusive: 94%
O=C(CCOc1ccccc1)Nc1nnc(-c2ccc3c(c2)OCCO3)o1 | inactive: 99%
COC(=O)c1cccc(NC(=O)Nc2ccc(Cl)c(Cl)c2)c1 | inconclusive: 103%

Structure (SMILES) | GTP binding activity (percent of control)
CCC(C)(C)C1CCC(=NNS(=O)(=O)c2ccc(C)c([N+](=O)[O-])c2)CC1 (stereo not given) | inconclusive: 95%
Cc1ccc(NC(=S)NC(=O)c2ccc(-c3ccccc3)cc2)c(C)c1 | inactive: 100%
CCC1=NN2C(=N)/C(=C\c3cccn3-c3ccc(C)cc3C)C(=O)N=C2S1 | inconclusive: 89%
C/C(=C\c1ccccc1)CN1CCN(c2ccccc2F)CC1 | inconclusive: 94%
NC(=S)N=Nc1c(O)[nH]c2ccccc12 | inactive: 95%
CCOC(=O)N1CCN(c2cc(=O)n(-c3ccc(Br)cc3)c(=O)[nH]2)CC1 | inconclusive: 104%
CC(C)OC(=O)CSc1nc(-c2ccc(F)cc2)nc2ccc(F)cc12 | inconclusive: 96%
COc1cc(Cn2c(-c3nonc3N)nc3ccccc32)ccc1C | inconclusive: 92%
CC(=O)Nc1nc(SCCCc2ccccc2)n[nH]1 | inconclusive: 103%
Cc1c(Br)c([N+](=O)[O-])nn1CC(=O)Nc1c(C)n(C)n(-c2ccccc2)c1=O | inactive: 97%
CS(=O)(=O)c1ccc(Cl)c(NC(=O)c2ccc3ccccc3c2)c1 | inactive: 102%
CN(/N=C/c1ccco1)C1=NS(=O)(=O)c2ccccc21 | inactive: 85%
CC(=O)NC12CC3CC(C1)CC(C(=O)OCC(=O)c1ccc4c(c1)OCCO4)(C3)C2 | inactive: 98%
CC(C)Oc1cccc(C(=O)C2CCCN(Cc3cccn3-c3ccccn3)C2)c1 (stereo not given) | inactive: 106%
Cc1ccccc1OCCn1cc(/C(N)=N/O)c2ccccc21 | inactive: 95%
CCOC(=O)Nc1nc(C)c(C(=O)c2ccc(Cl)cc2)s1 | inconclusive: 97%
CCc1nnc(NC(=O)CCC(=O)N2CCN(c3ccccn3)CC2)s1 | inconclusive: 19%
NC(=O)N=Nc1c(O)[nH]c2c(Br)cc(Br)cc12 | inactive: 83%
Cc1cccc2nc(CSc3nc4ccccc4[nH]3)cn12 | inconclusive: 95%
COc1ccc(C)cc1N(CC(=O)N1CCc2ccccc2C1)S(C)(=O)=O | inconclusive: 96%

Individual results from the results shown:
Under GTP binding activity (percent of control), COc1cc(Cn2c(-c3nonc3N)nc3ccccc32)ccc1C shows inconclusive: 92%
Under GTP binding activity (percent of control), Cc1cccc2nc(CSc3nc4ccccc4[nH]3)cn12 shows inconclusive: 95%
Under GTP binding activity (percent of control), CCC(C)(C)C1CCC(=NNS(=O)(=O)c2ccc(C)c([N+](=O)[O-])c2)CC1 (stereo not given) shows inconclusive: 95%
Under GTP binding activity (percent of control), CCc1nnc(NC(=O)CCC(=O)N2CCN(c3ccccn3)CC2)s1 shows inconclusive: 19%
Under GTP binding activity (percent of control), NC(=S)N=Nc1c(O)[nH]c2ccccc12 shows inactive: 95%

Source: PubChem BioAssay AID758 (NMMLSC, 2007)
